Assay results reported in article PMC9358981 (Journal of pharmacological and toxicological methods, 2021).

Test system: MN9D cells
Assay: BDNF secretion via in situ ELISA
Format: cell-based
Conditions: compound 10 μM + 15 nM BD1063, MN9D cells

## COc1cc2c(cc1OC)C(=O)C(CC1CCN(Cc3ccccc3)CC1)C2 (stereo not shown) [Donepezil]
  Reversal of the BDNF response by S1R-selective concentration of BD1063: could be reversed
